Here are results for 42 sequences from paper PMC7819943, “Rice protein-binding microarrays: a tool to detect cis-acting elements near promoter regions in rice”.

Some of the results follow.

In the assay the target is T1, OsSMF1 (Oryza sativa, UniProt Q6ZLB0 1-436).
T1 sequence: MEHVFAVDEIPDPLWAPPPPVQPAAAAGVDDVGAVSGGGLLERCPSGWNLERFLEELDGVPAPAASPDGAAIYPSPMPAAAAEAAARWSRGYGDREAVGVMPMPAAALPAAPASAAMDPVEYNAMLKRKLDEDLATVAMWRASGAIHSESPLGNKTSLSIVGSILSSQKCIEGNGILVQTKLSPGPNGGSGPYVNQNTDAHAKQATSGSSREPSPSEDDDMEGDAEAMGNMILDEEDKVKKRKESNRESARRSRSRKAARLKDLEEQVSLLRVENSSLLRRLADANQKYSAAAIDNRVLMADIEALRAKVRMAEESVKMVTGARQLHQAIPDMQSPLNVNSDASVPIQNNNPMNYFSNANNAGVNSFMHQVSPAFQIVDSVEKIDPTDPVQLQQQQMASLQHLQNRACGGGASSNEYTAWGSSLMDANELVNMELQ
Description: protein-binding microarray (RPBM); PBS, 2% BSA, 51.3 ng/ul salmon testes DNA, 50 uM zinc acetate, 200 nM TF, 25 C, 1 h; high values mean tight binding. To be noted: protein: recombinant; tags: N-terminal polyhistidine and DsRed monomer fusion (pET32a); chain copies: 2; label: CyDye5-dUTP incorporated in the synthesized complementary strand; 3' TTTTT single-stranded linker to array surface; dsDNA, one strand shown. The procedure, abridged: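 Polyhistidine-tagged DsRed fusions of transcription factors, joined at the N-terminus, were expressed in E. coli BL21-CodonPlus and isolated on Ni–NTA. They were incubated at 200 nM for 1 h at 25 °C on a custom Agilent array, double-stranded and BSA-blocked, in PBS with 2% BSA, salmon testes DNA and 50 µM zinc acetate. The binding signal is per-feature fluorescence intensity (arbitrary units) read on an Axon 4000B scanner after washing.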
As to “TCTGGCGAGTCGGCGGCTCCCCGGCGGCGCGGTGACTCGGCGGAGTCACCTAGTGCAG”, the binding signal is 4140 fluorescence intensity (a.u.).

In the case of “GGCCTCGCGTACGGCCGCCACGTGGCCTCGCCGTATCAATCGGAGTCACCTAGTGCAG”, the binding signal was 10600 fluorescence intensity (a.u.).

For “CGGGCGGCTGGTCAGGTCAATGTAACTGTACACAGGCGACCGGAGTCACCTAGTGCAG”, the binding signal was 3390 fluorescence intensity (a.u.).

For the sequence “GTCTTGGGCCTCCACTCGAGGCTGACACACATGGGCCGTACGGAGTCACCTAGTGCAG”, the binding signal is 3910 fluorescence intensity (a.u.).

With “TGTATTTGTCATCCAACGCGACACACAAGCATAATACATGCGGAGTCACCTAGTGCAG”, the binding signal was 3900 fluorescence intensity (a.u.).

Regarding “AAAAGAATGTTTCCATCTCTCGTACCTTCTCTTTCTAGTACGGAGTCACCTAGTGCAG”, the binding signal is 22400 fluorescence intensity (a.u.).

As to “ATATCTCGTGTCATCTCTCCTTCATGCATACTGCTCAGTACGGAGTCACCTAGTGCAG”, the binding signal is 4000 fluorescence intensity (a.u.).

Turning to “CAAAACCATCCATCTACACTTTTAAAGGAACTAATTTAACCGGAGTCACCTAGTGCAG”, the binding signal is 3360 fluorescence intensity (a.u.).

Consider “CTTACTCTGTCGCCTACTAGTCCACCTCTCACTGTTGTTCCGGAGTCACCTAGTGCAG”, for which the binding signal is 3180 fluorescence intensity (a.u.).

Consider “ATTTTGGAGCTGCTACAATTGATTCTATGTTACGATTTGTCGGAGTCACCTAGTGCAG”, for which the binding signal was 27300 fluorescence intensity (a.u.).

Take “CAAGTAAGTGGTCTGCCAGCGCGGCCTCCCTCCGCCTCCTCGGAGTCACCTAGTGCAG”: the binding signal was 3490 fluorescence intensity (a.u.).

For the sequence “ATCGTCCTGTCACTTGCCCATAATCGAACTGGACCTTGATCGGAGTCACCTAGTGCAG”, the binding signal is 3350 fluorescence intensity (a.u.).

For “GACACCACCACAACGACGGCACCACCTCGTCCTTGCCATGCGGAGTCACCTAGTGCAG”, the binding signal is 4540 fluorescence intensity (a.u.).

On to “ATCTCAACTTTTAACGGTGCCACGTGGTCCAATCTGCAGCCGGAGTCACCTAGTGCAG”, for which the binding signal is 7880 fluorescence intensity (a.u.).

For the sequence “CTTGAGGCGCCGAAGTGACCTCTTCCACCGCGCCGCCGCCCGGAGTCACCTAGTGCAG”, the binding signal is 4660 fluorescence intensity (a.u.).

As for “CTTCGTCTCCTCCTCCTCCACGTCATCCGCCTCCGCCTCCCGGAGTCACCTAGTGCAG”, the binding signal is 26000 fluorescence intensity (a.u.).

Consider “GGAAAGGCGCCACGTAATAAATAGAAACAGACTCAGCACTCGGAGTCACCTAGTGCAG”, for which the binding signal was 6760 fluorescence intensity (a.u.).

For “CCATATTGGCAATGTGACATGTCCTACATATGCTAAATTGCGGAGTCACCTAGTGCAG”, the binding signal was 3350 fluorescence intensity (a.u.).

Regarding “CGTCCGCCCGTCCGTCCTGCAGAGAGACACATCACCGTGTCGGAGTCACCTAGTGCAG”, the binding signal is 6210 fluorescence intensity (a.u.).

In the case of “GCAGGCTGAATAAAACTGTATTGTCATCGATGATATTGGTCGGAGTCACCTAGTGCAG”, the binding signal is 5020 fluorescence intensity (a.u.).

“CGCCTCACACCGCGGCCCCTCGCCACCGTCCCTGCGTCGCCGGAGTCACCTAGTGCAG”: the binding signal was 3420 fluorescence intensity (a.u.).

On to “CCATTCTCCGCCGTTGGATCCATCACCTCAATCAACATCACGGAGTCACCTAGTGCAG”, for which the binding signal is 3250 fluorescence intensity (a.u.).

Regarding “CCTAATTAATCCGTCATTAGCAAATGTTTATTGTAGCACCCGGAGTCACCTAGTGCAG”, the binding signal is 4220 fluorescence intensity (a.u.).

In the case of “GAGGGAGAGAGAGAGAGAGGGGACACGAGATACGCGGAATCGGAGTCACCTAGTGCAG”, the binding signal is 5220 fluorescence intensity (a.u.).

Consider “GAGACGGCGAGCGGCTGACGTGATGTGGGTAGGAAGAACGCGGAGTCACCTAGTGCAG”, for which the binding signal was 31100 fluorescence intensity (a.u.).

As for “AACAACAGATGCATCAGCACAACGAGATGCCTTCAATTGCCGGAGTCACCTAGTGCAG”, the binding signal is 3230 fluorescence intensity (a.u.).

As for “TGGATTGGATTAGATAATTTCTCCAACTCAGCGTCACAAACGGAGTCACCTAGTGCAG”, the binding signal is 3140 fluorescence intensity (a.u.).

Turning to “TTCTTTCATCAATTACTAGGCCTAGATGGGTAATTTTGGTCGGAGTCACCTAGTGCAG”, the binding signal was 3200 fluorescence intensity (a.u.).

With “ATTCCAAAATCCCTTTCCCTCCACGACACCGCTTCCAGCCCGGAGTCACCTAGTGCAG”, the binding signal was 23600 fluorescence intensity (a.u.).

As for “TATATGTTAATGAATCTTGACACATATATAATAAACCGTGCGGAGTCACCTAGTGCAG”, the binding signal was 4190 fluorescence intensity (a.u.).

As for “GGCTTCCTCTCCGACTCCTCCTCCGATGACGAGGAGGGCGCGGAGTCACCTAGTGCAG”, the binding signal was 3740 fluorescence intensity (a.u.).

Consider “GGGCAGTGCCCCGTCCCCATCATCGCCGACGTCGACATCTCGGAGTCACCTAGTGCAG”, for which the binding signal is 4370 fluorescence intensity (a.u.).

Regarding “TTGCAGTTGGGACCCAGCCGCCACACGTGCACAGGTCCATCGGAGTCACCTAGTGCAG”, the binding signal was 3690 fluorescence intensity (a.u.).

For the sequence “CAGGTTCCTCGCCGGCTACGTCTCCGTCGGTAACCTGACGCGGAGTCACCTAGTGCAG”, the binding signal was 34300 fluorescence intensity (a.u.).

As to “TTAAAGTGCGCCATTGCCGCTCCGGTCGCGGCCCCTCCCTCGGAGTCACCTAGTGCAG”, the binding signal is 3570 fluorescence intensity (a.u.).

For the sequence “AGTCGTCGTCCTTCCCCGATGCGGCGATAGTCCACCGGGCCGGAGTCACCTAGTGCAG”, the binding signal is 16600 fluorescence intensity (a.u.).

With “CGTCTCGCCTTGCCCCGTCCACTAACCCTAGCGGCAACTGCGGAGTCACCTAGTGCAG”, the binding signal was 3160 fluorescence intensity (a.u.).

Consider “ACTCCACATTATGGCCGGCACATTTGTCATACTACCTACTCGGAGTCACCTAGTGCAG”, for which the binding signal was 3210 fluorescence intensity (a.u.).

As for “GCGTTATCCGCAGGATGACGTCATCCTCCTTGGTCTTCGCCGGAGTCACCTAGTGCAG”, the binding signal is 27800 fluorescence intensity (a.u.).

Turning to “AAGGTAGCCGTACGCGTCCTAACAATGTGACTCGTCCATACGGAGTCACCTAGTGCAG”, the binding signal is 4330 fluorescence intensity (a.u.).

For the sequence “TCGTACATAATATATCAGAATTATACATAAATTTGGTTTTCGGAGTCACCTAGTGCAG”, the binding signal was 3140 fluorescence intensity (a.u.).

For “TTCGCTGTTTCAACCGTCCTTGACGTCAACGGTGACATGGCGGAGTCACCTAGTGCAG”, the binding signal was 9790 fluorescence intensity (a.u.).
